Results from patent US20230365651A1.
These are yes or no findings as the source states them, for the method shown. Binding can be weak; no strength is given.

target: HLA-B*08:01 (human); assay: pMHC stability, b2m dissociation half-life at 37 C

binding, binds:
ALKARTVTF [… (SEQ ID NO: 43)]
LNKQKVTF [LNKQKVTF (SEQ ID NO: 44)]
VGREKKLAL [… (SEQ ID NO: 45)]
DMKKAKEQL [… (SEQ ID NO: 46)]
MPNLRSVDL [… (SEQ ID NO: 47)]
DVKKKIKEV [… (SEQ ID NO: 48)]
LPRLKAFMI [… (SEQ ID NO: 49)]
DMKYKNRV [DMKYKNRV (SEQ ID NO: 50)]
SLRLKNVQL [… (SEQ ID NO: 51)]
MAAVKQAL [MAAVKQAL (SEQ ID NO: 150)]
HLLLKVLAF [… (SEQ ID NO: 151)]
MGSARVAEL [… (SEQ ID NO: 152)]
NAMLRKVAV [… (SEQ ID NO: 153)]
MLRKIAVAA [… (SEQ ID NO: 154)]
HVKEKFLL [HVKEKFLL (SEQ ID NO: 156)]

target: HLA-A*02:01 (human); assay: UV peptide exchange, anti-b2m ELISA

binding, binds:
YMVHIQVTL [… (SEQ ID NO: 61)]
KVLGVNVML [… (SEQ ID NO: 62)]
MMEEMIFNL [… (SEQ ID NO: 63)]
FLDPDRHFL [… (SEQ ID NO: 64)]
GLLQELSSI [… (SEQ ID NO: 66)]
SLLLPSIFL [… (SEQ ID NO: 67)]
KLFDTQQFL [… (SEQ ID NO: 68)]
TTYEGSITV [… (SEQ ID NO: 69)]
VLQGLLRSL [… (SEQ ID NO: 70)]
TLLKALLEI [… (SEQ ID NO: 2)]
YLEDTDRNL [… (SEQ ID NO: 71)]
YLTDLQVSL [… (SEQ ID NO: 72)]
FLIEELLFA [… (SEQ ID NO: 73)]
KVVSVLYNV [… (SEQ ID NO: 75)]
IMFDDAIERA [… (SEQ ID NO: 216)]
VSSSLTLKV [… (SEQ ID NO: 217)]
PLPRPGAVL [… (SEQ ID NO: 219)]
RMTTQLLLL [… (SEQ ID NO: 220)]
SLLDLYQL [SLLDLYQL (SEQ ID NO: 221)]
ALMRLIGCPL [… (SEQ ID NO: 222)]
ALIYNLVGI [… (SEQ ID NO: 3)]
FAHHGRSL [FAHHGRSL (SEQ ID NO: 223)]
SLPRFQVTL [… (SEQ ID NO: 224)]
YTFRYPLSL [… (SEQ ID NO: 227)]
RLWDWVPLA [… (SEQ ID NO: 228)]
ISVPAKTSL [… (SEQ ID NO: 229)]
SVTESTHHL [… (SEQ ID NO: 231)]
TISSLTHEL [… (SEQ ID NO: 232)]
GVATRVDAI [… (SEQ ID NO: 234)]
SAIPFSMTL [… (SEQ ID NO: 236)]
ALFKAWAL [ALFKAWAL (SEQ ID NO: 4)]
RQPNILVHL [… (SEQ ID NO: 241)]
STIPALHEI [… (SEQ ID NO: 242)]
YASEGVKQV [… (SEQ ID NO: 243)]
DTDSSVHVQV [… (SEQ ID NO: 244)]
RLLDFINVL [… (SEQ ID NO: 5)]
SLGKHTVAL [… (SEQ ID NO: 6)]
ALQAFEFRV [… (SEQ ID NO: 7)]
YLVTKVVAV [… (SEQ ID NO: 8)]
VLLAGFKPPL [… (SEQ ID NO: 9)]
